Results of single-concentration screens

Measurements from “University of Dundee, Small-Polar-MMV Screening Library” (2021), ChEMBL document CHEMBL3988442.

Mtb cholesterol medium: 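Growth of Mycobacterium tuberculosis over 4 days (cholesterol / DPPC medium with tyloxapol); the read-out is not stated. Concentration: 50 µM. Higher reads as more growth inhibition (inferred: compounds with an IC50 in retests scored well above the rest). Size under these conditions: about 69,000 compounds, about 370 of them at 50% or above in at least one test.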
Mtb glucose medium: 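Whole-cell growth test on Mycobacterium tuberculosis, read after 3 days in glucose-containing 7H9 medium; the read-out is not stated. Tested at 50 µM. Direction is inferred from retests: higher values go with more growth inhibition. Size under these conditions: about 69,000 compounds, about 760 of them at 50% or above in at least one test.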

Each number is a percent effect as filed.
The record does not define 0% and 100%; most values in the screen are far below 50% and negative numbers occur (in some assays of this library far below -100).
The compounds are a random part of those screened.
Two or more numbers in one place are separate tests of the same structure; such repeats can differ widely.

* COCCN(C/C=C/c1ccccc1)Cc1[nH]cnc1C | Mtb cholesterol medium: 19.49%; Mtb glucose medium: 8.41%
* CN(C)c1cc(CNC(=O)c2ccccc2Cl)ccn1 | Mtb cholesterol medium: -13.19%; Mtb glucose medium: 15.17%
* O=C(NCc1n[nH]c2c1CCCCC2)c1cnn2c1CCCC2 | Mtb cholesterol medium: 5.858%; Mtb glucose medium: -7.483% & 40.14%
* CCC1CN(C(=O)c2ccc(O)cn2)CCC(=O)N1Cc1ccccc1 (centres undefined) | Mtb cholesterol medium: -13.22% & -13.77%; Mtb glucose medium: -21.8%
* COc1cccc2c3c(c(=O)n(C)c12)CCC(C)(C)O3 | Mtb cholesterol medium: 23.76%; Mtb glucose medium: 12.49% & 59.56%
* c1ccc(CCNc2ncnc3c2CCN(Cc2c[nH]cn2)CC3)cc1 | Mtb cholesterol medium: -11.02%; Mtb glucose medium: 10.93%
* Cc1nc(N(C)C)nc(N2CCC3(CC2)CNC(=O)O3)c1C | Mtb cholesterol medium: -4.255% & -14.88%; Mtb glucose medium: -8.85%
* [H][C@]12CC[C@]([H])(CN(CC(=O)N(C)C)C1)N(Cc1c(F)cccc1Cl)C2 | Mtb cholesterol medium: 20.35%; Mtb glucose medium: 27.44%
* COc1ccc(CN2CCC3(CC2)C(C(=O)O)CC(=O)N3C)cc1Cl (centres undefined) | Mtb cholesterol medium: -11.28%; Mtb glucose medium: -2.22% & 20.83%
* CCN1CCC(CNC(=O)Nc2cccnc2OC)CC1 | Mtb cholesterol medium: 2.081%; Mtb glucose medium: 1.016%
* O=C(COc1cccc2c1CCC2=O)NCCSc1ccccc1 | Mtb cholesterol medium: -21.19%; Mtb glucose medium: -20.24% & 5.106%
* Cc1cccc(C(C(=O)NCC2(Cn3nc(C)cc3C)CC2)N(C)C)c1 (centres undefined) | Mtb cholesterol medium: -8.944%; Mtb glucose medium: -3.133%
* [H][C@@]12C[C@@H](Oc3ccccc3)C[C@]1([H])CN(C(=O)c1cnn(C)c1)C2 | Mtb cholesterol medium: 5.442% & 7.582%; Mtb glucose medium: 14.88%
* NC(=O)c1cc2c(nc1-c1ccoc1)CCC2 | Mtb cholesterol medium: 8.82%; Mtb glucose medium: 7.455% & 1.161%
* CNC(=O)NC(=O)CN1CCCN(CC(F)(F)F)CC1 | Mtb cholesterol medium: -1.208%; Mtb glucose medium: 14.62%
* CCN(Cc1cc(Br)ccc1F)C(=O)C(C)NC(N)=O (centres undefined) | Mtb cholesterol medium: 7.319%; Mtb glucose medium: 7.711% & 11.34%
* Cc1cc(C2CCCN2Cc2cc(=O)n(C)c(=O)n2C)on1 (centres undefined) | Mtb cholesterol medium: -2.743%; Mtb glucose medium: -4.349%
* Cc1cnc(CN2CCCC(c3cc(C(N)=O)[nH]n3)C2)o1 (centres undefined) | Mtb cholesterol medium: -26.16%; Mtb glucose medium: -14.98%
* CC(=O)NCCC1CCCCN1C(=O)c1cccc(CCC(C)(C)O)c1 (centres undefined) | Mtb cholesterol medium: -6.68% & 8.89%; Mtb glucose medium: 10.58%
* CC(c1nc(C2CC2)no1)N1CCN(Cc2ccc(C#N)cc2)CC1 (centres undefined) | Mtb cholesterol medium: -2.289%; Mtb glucose medium: -15.34%
* CNC(=O)c1cc2c(nc1NC(C)C)CCNCC2 | Mtb cholesterol medium: -23.35%; Mtb glucose medium: 0.2297% & -27.91%
* CCNc1cc2c(nn1)CCN(C(=O)c1ccc(C(N)=O)cc1)C2 | Mtb cholesterol medium: 17.53%; Mtb glucose medium: -19.56%
* COC(=O)CCCn1ccnc1-c1ccccc1 | Mtb cholesterol medium: -8.954%; Mtb glucose medium: -13.93%
* CN(C)Cc1cn(-c2ccccc2C(=O)NCC2CCCCN2C)cn1 (centres undefined) | Mtb cholesterol medium: -3.087% & -12.53%; Mtb glucose medium: -3.8%
* CCOc1ccc2nc(CN3CCOC(CN)C3)ccc2c1 (centres undefined) | Mtb cholesterol medium: -7.867%; Mtb glucose medium: 45.03%
* O=C(CCc1cccnc1)N1CCC(c2cnccn2)CC1 | Mtb cholesterol medium: 15%; Mtb glucose medium: 5.283%
* Cn1cc(C[C@H]2[C@H](O)CCN2Cc2ccncc2)cn1.O=C(O)C(F)(F)F.O=C(O)C(F)(F)F | Mtb cholesterol medium: 16.75% & 0.5205%; Mtb glucose medium: -7.451%
* COCCN1CCC(CNC(=O)C2(NC(C)=O)CCCCC2)CC1 | Mtb cholesterol medium: 11.85%; Mtb glucose medium: 24.89%
* CC(C)(C)c1ncc2c(n1)CN(C(=O)c1ccncc1)C2 | Mtb cholesterol medium: -24.21%; Mtb glucose medium: -21.48%
* O=C(O)C(F)(F)F.[H][C@@]12CN(Cc3ccc(C)cc3)C[C@]1([H])CN(C(=O)c1cccn1C)C2 | Mtb cholesterol medium: -5.781%; Mtb glucose medium: 15.53%
* COC(=O)NCC(=O)NC1(C)CCc2ccccc2C1 (centres undefined) | Mtb cholesterol medium: 0.5675%; Mtb glucose medium: -5.854%
* Fc1ccc(F)c(CN2CCC(c3n[nH]c4ncccc34)CC2)c1.O=C(O)CC(O)(CC(=O)O)C(=O)O | Mtb cholesterol medium: -7.369%; Mtb glucose medium: 25.52%
* COCCC(=O)N1CCC2(COCc3cnc(-c4cccnc4)nc32)C1 (centres undefined) | Mtb cholesterol medium: -6.721%; Mtb glucose medium: -0.4749%
* CN(Cc1n[nH]c(=O)n1Cc1cccs1)S(C)(=O)=O | Mtb cholesterol medium: 4.593%; Mtb glucose medium: -10.05%
* O=C(O)C(F)(F)F.[H][C@@]12CCN(CC(=O)NC)C[C@]1([H])CN(C(=O)c1cccc(C)c1)C2 | Mtb cholesterol medium: -20.62%; Mtb glucose medium: -9.118%
* [H][C@@]12C[C@@H](OCc3ccccc3)C[C@]1([H])CN(CC(=O)N1CCOCC1)C2 | Mtb cholesterol medium: 0.08956%; Mtb glucose medium: 8.114%
* O=C(O)C(F)(F)F.[H][C@@]12COC[C@]1(CNC(=O)c1ccccc1)CN(Cc1nccs1)C2 | Mtb cholesterol medium: 7.785%; Mtb glucose medium: 3.391%
* CN(C)C(=O)c1cccnc1N1CCOC(c2ccc(Cl)cc2)C1 (centres undefined) | Mtb cholesterol medium: -14.12%; Mtb glucose medium: -15.42%
* O=C(O)CN(Cc1ccsc1)CC1CCCO1 (centres undefined) | Mtb cholesterol medium: -3.512%; Mtb glucose medium: 6.811%
* CC(C)N(Cc1cccnc1)C(=O)CNc1ccc(C#N)cc1 | Mtb cholesterol medium: -10.75%; Mtb glucose medium: -18.76%
* CCCC(=O)NCC(=O)NC1CC(C)(C)Cc2oc(C)cc21 (centres undefined) | Mtb cholesterol medium: -24.36%; Mtb glucose medium: -1.57%
* Cc1nc(C2(O)CCCNCC2)sc1CCOc1ccc(Cl)cc1.Cl (centres undefined) | Mtb cholesterol medium: 31.53%; Mtb glucose medium: 39.56%
* CCCn1c(C)c(CC(=O)NCCNC(C)=O)c2c1CC(C)(C)CC2=O | Mtb cholesterol medium: -4.799%; Mtb glucose medium: 3.033%

3 of the entries, repeated:

| compound | Mtb cholesterol medium | Mtb glucose medium |
|---|---|---|
| `CN(C)Cc1cn(-c2ccccc2C(=O)NCC2CCCCN2C)cn1` (centres undefined) | -3.087 & -12.53 | -3.8 |
| `[H][C@@]12C[C@@H](OCc3ccccc3)C[C@]1([H])CN(CC(=O)N1CCOCC1)C2` | 0.08956 | 8.114 |
| `c1ccc(CCNc2ncnc3c2CCN(Cc2c[nH]cn2)CC3)cc1` | -11.02 | 10.93 |